Data from patent US10695434B2, “Preventing central nervous system induced nausea through use of vitamin B12 conjugation” (Syracuse University, priority 2018, dated 2020).
At least one structure is not confirmed: it was looked up by name or label, or the drawing left a doubt.

Assay: Oral glucose tolerance test, food intake and nausea (kaolin consumption) in diabetic lean rats
Assay type: in vivo
Conditions: Goto-Kakazaki rats; Ex-4 20 ug/Kg, B12-Ex4 equimolar, liraglutide 100 ug/Kg, 60 min pre-glucose
Procedure: FIG. 8 is a series of graphs showing a standard oral glucose tolerance test performed in Goto-Kakazaki rats, a form of naturally diabetic lean rat, along with food intake and nausea measurements.
Referring to FIG. 8, Testing of Ex-4 at 20 ug/Kg, B12-Ex4 at equimolar to Ex-4, and liraglutide at 100 ug/Kg were screened for glucoregulation, food intake reduction and nausea (kaolin consumption). All drugs were administered at 60 minutes pre-glucose bolus, food intake and nausea were tracked over 6 hours.

In the case of CCCCCCCCCCCCCCCC(=O)N[C@@H](CCC(=O)NCCCC[C@H](NC(=O)[C@H](C)NC(=O)[C@H](C)NC(=O)[C@H](CCC(N)=O)NC(=O)CNC(=O)[C@H](CCC(=O)O)NC(=O)[C@H](CC(C)C)NC(=O)[C@H](Cc1ccc(O)cc1)NC(=O)[C@H](CO)NC(=O)[C@H](CO)NC(=O)[C@@H](NC(=O)[C@H](CC(=O)O)NC(=O)[C@H](CO)NC(=O)[C@@H](NC(=O)[C@H](Cc1ccccc1)NC(=O)[C@@H](NC(=O)CNC(=O)[C@H](CCC(=O)O)NC(=O)[C@H](C)NC(=O)[C@@H](N)Cc1cnc[nH]1)[C@@H](C)O)[C@@H](C)O)C(C)C)C(=O)N[C@@H](CCC(=O)O)C(=O)N[C@@H](Cc1ccccc1)C(=O)N[C@H](C(=O)N[C@@H](C)C(=O)N[C@@H](Cc1c[nH]c2ccccc12)C(=O)N[C@@H](CC(C)C)C(=O)N[C@H](C(=O)N[C@@H](CCCNC(=N)N)C(=O)NCC(=O)N[C@@H](CCCNC(=N)N)C(=O)NCC(=O)O)C(C)C)[C@@H](C)CC)C(=O)O [liraglutide], the “hyperglycemia in OGTT” value is reported as “does not”.
